These results are taken from US20230203098A1, “HUMAN TRANSFERRIN RECEPTOR BINDING PEPTIDE” (priority 2020, published 2023).

No constants are given. Whether binding was seen depends on the method and setting. Some binding calls cover weakened binding; strength is not graded here.

This assay has as its target human transferrin receptor (hTfR) (human) (UniProt P02786). Nature of the assay: SPR; grade B: KD >=1 nM, <100 nM. (In general: SPR reads the build-up and loss of mass on a sensor chip optically.)

Regarding AVFVWNFYIIRRYYC (3 MePhe; 14 MeTyr; C-term PEG12c; cyclic 1-15 thioether) [894_3m_7F], the binding result was “binds”.

In the case of AVFVWNYYIIRRYYC (3 MeF; 14 MeY; C-term G-KCOpipzaa-de-de-S-S-C(AcNMe); cyclic 1-15 thioether) [894_3m_GLinker21(AcNMe)], the binding entry is “binds”.

As for EVFVWNYYIIRRYYC (14 MeY; C-term PEG12-Hydrazide; cyclic 1-15 thioether) [hTfR_894_E1_PEG12_(Hydrazide)], the binding result is “binds”. Next, ARFVWNYYIIRRYYC (14 MeY; cyclic 1-15 thioether) [JCR_hTfR_000894_R2]: “binds”; AVFVWNYYIIRRAYC (3 MePhe; 14 MeTyr; C-term PEG12c; cyclic 1-15 thioether) [894_3m_13A]: “binds”. Next, AVFVWNYYIIRRYYC (3 MeF; 5 MeW; 14 MeY; cyclic 1-15 thioether) [894_v03]: “binds”. Next, AVFVWNYYIIRRYYC (3 MeF; 14 MeY; C-term PEG12c; cyclic 1-15 thioether) [894_v01_PEG12]: “binds”.

For the molecule AVFVWNYYIIRRKYC (14 MeY; cyclic 1-15 thioether) [JCR_hTfR_000894_K13], the binding entry was “binds”. Next, AEFVWNYYIIRRYYC (14 MeY; cyclic 1-15 thioether) [JCR_hTfR_000894_E2]: “binds”. Next, AVFVWNYYIIARYYC (14 MeY; cyclic 1-15 thioether) [JCR_hTfR_000894_A11]: “binds”; AVFVWNYYIIRRYYC (3 MeF; 14 MeY; C-term G-G-G-KCOmeglumine-S-S-C(AcNMe); cyclic 1-15 thioether) [894_3m_GLinker20(AcNMe)]: “binds”.

As for AVFVWNYYIIRRYYC (3 MeF; 14 MeY; C-term G-G-G-G-S-S-C(AcNMe); cyclic 1-15 thioether) [894_3m_G4S2C(AcNMe)], the binding result was “binds”. Regarding AVFVWNYYIIREYYC (14 MeY; cyclic 1-15 thioether) [JCR_hTfR_000894_E12_Re180111], the binding entry is recorded as “binds”. Next, AVFVWNYYIIRRYYC (3 MeF; 14 MeY; cyclic 1-15 thioether) [894_v01]: “binds”; AKFVWNYYIIRRYYC (14 MeY; cyclic 1-15 thioether) [JCR_hTfR_000894_K2]: “binds”; AVFVWNYYIIRRYYC (3 MeF; 14 MeY; C-term G-G-KCOpipzaa-G-S-S-C(AcNMe); cyclic 1-15 thioether) [894_3m_GLinker11(AcNMe)]: “binds”.

Consider AVFVWNYYIIRRYYC (3 MeF; 14 MeY; C-term MeG-MeG-MeG; cyclic 1-15 thioether) [894_3m_MeG3], for which the binding result was “binds”. In the case of AVFVWNYYIIRRYYC (3 MeF; 14 MeY; C-term G-de-de-G-S-S-C(AcNMe); cyclic 1-15 thioether) [894_3m_GLinker5(AcNMe)], the binding result is listed as “binds”.

AVFVWNYYIIRRYYC (3 MeF; 14 MeY; C-term G-KCOpipzaa-G-G-S-S-C(AcNMe); cyclic 1-15 thioether) [894_3m_GLinker10(AcNMe)]: the binding entry was “binds”. Next, AVFVWNYYIIRRYYC (3 MeF; 14 MeY; C-term G-de-G-KCOpipzaa-S-S-C(AcNMe); cyclic 1-15 thioether) [894_3m_GLinker15(AcNMe)]: “binds”. Next, AVFVWNYYIIKRYYC (3 MeF; 14 MeY; cyclic 1-15 thioether) [JCR_hTfR_000894_3MeF_11K]: “binds”. Next, AVFVWNYYIIRRYYC (3 MeF; 14 MeY; C-term G-de-de-de-G-dk; cyclic 1-15 thioether) [894_var.184]: “binds”. On to GVFVWNYYIIRRYYC (3 MePhe; 14 MeTyr; C-term PEG12c; cyclic 1-15 thioether) [894 _3m _1G], for which the binding result is “binds”. Next, AVFVWNYYIIRRYYC (3 MeF; 14 MeY; C-term G-de-KCOpipzaa-de-G-dk; cyclic 1-15 thioether) [894_var.185]: “binds”; AVFVWNYYIIERYYC (14 MeY; cyclic 1-15 thioether) [JCR_hTfR_000894_E11_Re180111]: “binds”; AVFVWNYYIIRRYYC (3 MeF; 14 MeY; C-term G-G-KCOpipzaa-de-S-S-C(AcNMe); cyclic 1-15 thioether) [894_3m_GLinker9(AcNMe)]: “binds”. Turning to AVFVWNYYIRRRYYC (14 MeY; cyclic 1-15 thioether) [JCR_hTfR_000894_R10], the binding result was “binds”.

Consider AVFVWNYYIYRRYYC (3 MePhe; 14 MeTyr; C-term PEG12c; cyclic 1-15 thioether) [894_3m_10Y], for which the binding result was “binds”. For AVFVWNYYIIRRYYC (3 MeF; 14 MeY; C-term G-KN3; cyclic 1-15 thioether) [894_3m_G_Azi_Re200923], the binding result was “binds”. Under AVFVWNYYIIRRYYC (3 MeF; 14 MeY; C-term G-G-KCOmeglumine-G-S-S-C(AcNMe); cyclic 1-15 thioether) [894_3m_GLinker19(AcNMe)] stands “binds”. Next, AVFVWNYYIIRRYYC (3 MeF; 14 MeY; C-term G-de-KCOpipzaa-de-S-S-C(AcNMe); cyclic 1-15 thioether) [894_3m_GLinker22(AcNMe)]: “binds”; AVFVWNYYIIRRYYC (3 MeF; 14 MeY; C-term G-de-de-de-S-S-C(AcNMe); cyclic 1-15 thioether) [894_3m_GLinker4(AcNMe)]: “binds”; AVFVWNYYIIRKYYC (14 MeY; cyclic 1-15 thioether) [JCR_hTfR_000894_K12]: “binds”. Under AVFVWNWYIIRRYYC (3 MePhe; 14 MeTyr; C-term PEG12c; cyclic 1-15 thioether) [894_3m_7W] stands “binds”. In the case of AVFVWNYYIIRRYAC (3 MePhe; C-term PEG12c; cyclic 1-15 thioether) [894_3m_14A], the binding entry is on record as “binds”. Under AVFVWNYYIIRRYYC (3 MePhe; 8 MeTyr; 14 MeTyr; C-term PEG12c; cyclic 1-15 thioether) [894_3m_8m] stands “binds”. Under AVFVWNYYIIKRYYC (11 MeK; 14 MeY; cyclic 1-15 thioether) [JCR_hTfR_000894_11MeK] stands “binds”.

Take AVFVWNYYIIKRYYC (3 MeF; 5 MeW; 14 MeY; cyclic 1-15 thioether) [JCR_hTfR_000894_3MeF_5meW_11K]: the binding result is “binds”.

AVFVWNYYIIRRYYC (3 MeF; 14 MeY; C-term G-G-KCOmeglumine-de-S-S-C(AcNMe); cyclic 1-15 thioether) [894_3m_GLinker14(AcNMe)]: the binding entry is recorded as “binds”. With AVWVWNYFIIPRHC (C-term PEG11-K-FITC; cyclic 1-14 thioether) [JCR_hTfR_000837_PEG11_K(FITC)], the binding entry is “binds”. Next, AVFVWNYYIIRRYYC (3 MeF; 14 MeY; C-term G-OH; cyclic 1-15 thioether) [894_3m_G]: “binds”; AVFVWNYYIVPRDC (C-term PEG11-K-FITC; cyclic 1-14 thioether) [JCR_hTfR_000692_PEG11_K(FITC)]: “binds”. Under AVFVWNYYIARRYYC (3 MePhe; 14 MeTyr; C-term PEG12c; cyclic 1-15 thioether) [894_3m_10A] stands “binds”; under AVFVWNYYIIRRYRC (3 MePhe; C-term PEG12c; cyclic 1-15 thioether) [894_3m_14R], “binds”; under AVFVWNYYIIRRYYC (3 MeF; 14 MeY; C-term G-de-G-KCOmeglumine-S-S-C(AcNMe); cyclic 1-15 thioether) [894_3m_GLinker17(AcNMe)], “binds”. AVFVWNYYIIRRYYC (3 MeF; 14 MeY; C-term G-KCOmeglumine-G-G-S-S-C(AcNMe); cyclic 1-15 thioether) [894_3m _GLinker7(AcNMe)]: the binding entry is “binds”. Under AVFVWNYYIIARYYC (3 MeF; 14 MeY; C-term de; cyclic 1-15 thioether) [894_variant_097] stands “binds”; under AVFVWNYYIIRRYYC (3 MeF; 14 MeY; C-term G-KCOmeglumine-G-de-S-S-C(AcNMe); cyclic 1-15 thioether) [894_3m_GLinker13(AcNMe)], “binds”; under AVFVWNYYIIRRYYC (3 MeF; 14 MeY; C-term G-G-G-KCOpipzaa-S-S-C(AcNMe); cyclic 1-15 thioether) [894_3m_GLinker12(AcNMe)], “binds”.

Turning to AVFVWNAYIIRRYYC (3 MePhe; 14 MeTyr; C-term PEG12c; cyclic 1-15 thioether) [894_3m_7A], the binding result is recorded as “binds”. Under AVFVWNYYIIRRYYC (3 MeF; 14 MeY; C-term G-G-de-KCOpipzaa-S-S-C(AcNMe); cyclic 1-15 thioether) [894_3m_GLinker16(AcNMe)] stands “binds”; under AVFVWNYYIIRAYYC (14 MeY; cyclic 1-15 thioether) [JCR_hTfR_000894_A12], “binds”. Next, AFFVWNYYIIRRYYC (3 MePhe; 14 MeTyr; C-term PEG12c; cyclic 1-15 thioether) [894_3m_2F]: “binds”; AVFVWNYYIIKRYYC (3 MeF; 11 MeK; 14 MeY; cyclic 1-15 thioether) [JCR__hTfR_000894_3Me_11MeK]: “binds”; AVFVWNYYIIRRYYC (3 MeF; 14 MeY; C-term G-KCOpipzaa-G-de-S-S-C(AcNMe); cyclic 1-15 thioether) [894_3m_GLinker8(AcNMe)]: “binds”. Under AVFVWNYYIVPREC (C-term PEG11-K-FITC; cyclic 1-14 thioether) [JCR_hTfR_100019_PEG11_K(FITC)] stands “binds”; under AVFVWNYYIIRRRYC (14 MeY; cyclic 1-15 thioether) [JCR_hTfR_000894_R13], “binds”; under AVFVWNYYIIRREYC (14 MeY; cyclic 1-15 thioether) [JCR_hTfR_000894_E13], “binds”.

In the case of AVFVWNYYIIRRYYC (3 MeF; 14 MeY; C-term G-G-de-KCOmeglumine-S-S-C(AcNMe); cyclic 1-15 thioether) [894_3m_GLinker18(AcNMe)], the binding entry is reported as “binds”. Next, AVFVWDYYIIRRYYC (3 MePhe; 14 MeTyr; C-term PEG12c; cyclic 1-15 thioether) [894_3m_6D]: “binds”; AVFVWNYYIERRYYC (14 MeY; cyclic 1-15 thioether) [JCR_hTfR_000894_E10]: “binds”.

For SVFVWNYYIIRRYYC (3 MePhe; 14 MeTyr; C-term PEG12c; cyclic 1-15 thioether) [894 _3m _1S], the binding result is on record as “binds”. As to AVFVWNYYIIYRYYC (3 MePhe; 14 MeTyr; C-term PEG12c; cyclic 1-15 thioether) [894_3m_11Y], the binding result was “binds”. Next, AVFVWNYYIVPRNC (C-term PEG11-K-FITC; cyclic 1-14 thioether) [JCR_hTfR_000687_PEG11_K(FITC)]: “binds”. Next, AVFVWNYYIVPRWC (13 MeW; C-term PEG11-K-FITC; cyclic 1-14 thioether) [JCR_hTfR_100016_PEG11_K(FITC)]: “binds”; AVFVWNYYIIRRYYC (3 MeF; 14 MeY; C-term G-KN3; cyclic (cell for position 15 blank in the table)) [894_3m_G_Azi]: “binds”.
